This experiment has as its target GST-importin α5 (human importin α5 as a GST fusion protein) (human) (UniProt P52294). The experiment in a line: pull-down; […] (50 mM Tris-HCl pH 7.4, 150 mM NaCl, 5 mM EDTA, 1% Triton X-100), […]; only the target purified.

The chains behind the UniProt entries cited, without tags or fusion partners.
UniProt P52294: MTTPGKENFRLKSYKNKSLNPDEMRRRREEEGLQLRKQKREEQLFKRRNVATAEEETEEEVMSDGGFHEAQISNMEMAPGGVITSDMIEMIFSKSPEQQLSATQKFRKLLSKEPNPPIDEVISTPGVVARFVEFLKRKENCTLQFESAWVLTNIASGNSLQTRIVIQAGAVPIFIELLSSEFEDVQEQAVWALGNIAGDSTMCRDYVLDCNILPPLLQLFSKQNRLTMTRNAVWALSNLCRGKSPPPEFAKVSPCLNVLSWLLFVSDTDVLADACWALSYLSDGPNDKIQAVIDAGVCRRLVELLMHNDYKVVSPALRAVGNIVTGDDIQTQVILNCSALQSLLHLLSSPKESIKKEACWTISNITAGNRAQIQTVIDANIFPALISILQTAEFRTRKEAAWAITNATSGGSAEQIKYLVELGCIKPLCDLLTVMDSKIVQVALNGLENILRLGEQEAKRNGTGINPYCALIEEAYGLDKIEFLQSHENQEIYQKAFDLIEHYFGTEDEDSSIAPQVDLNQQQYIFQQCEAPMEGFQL
UniProt Q5XX02: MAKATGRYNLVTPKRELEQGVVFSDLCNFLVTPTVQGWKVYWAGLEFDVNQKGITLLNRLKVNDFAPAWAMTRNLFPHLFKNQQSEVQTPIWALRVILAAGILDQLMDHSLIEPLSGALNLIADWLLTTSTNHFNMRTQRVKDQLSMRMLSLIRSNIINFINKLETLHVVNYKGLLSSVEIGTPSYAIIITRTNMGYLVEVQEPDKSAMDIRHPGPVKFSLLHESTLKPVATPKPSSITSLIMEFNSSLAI

Results are given in words; binding and its absence hold for the method and conditions named. Binding seen in cells or lysates may run through a third protein. Some binding calls cover weakened binding; strength is not graded here.

Regarding “Sudan ebolavirus (SUDV) VP24 (from UniProt Q5XX02 1-251)”, the binding entry is “binds”.

Values taken from article PMC8767557.
